Laboratory results published in the supplement of paper PMC10849652.
Some of the results follow.

Sequences of proteins named here, by UniProt entry; tags and fusion partners are left off. A change or cut given only in a name is not applied to a line headed by its entry.
UniProt Q15063: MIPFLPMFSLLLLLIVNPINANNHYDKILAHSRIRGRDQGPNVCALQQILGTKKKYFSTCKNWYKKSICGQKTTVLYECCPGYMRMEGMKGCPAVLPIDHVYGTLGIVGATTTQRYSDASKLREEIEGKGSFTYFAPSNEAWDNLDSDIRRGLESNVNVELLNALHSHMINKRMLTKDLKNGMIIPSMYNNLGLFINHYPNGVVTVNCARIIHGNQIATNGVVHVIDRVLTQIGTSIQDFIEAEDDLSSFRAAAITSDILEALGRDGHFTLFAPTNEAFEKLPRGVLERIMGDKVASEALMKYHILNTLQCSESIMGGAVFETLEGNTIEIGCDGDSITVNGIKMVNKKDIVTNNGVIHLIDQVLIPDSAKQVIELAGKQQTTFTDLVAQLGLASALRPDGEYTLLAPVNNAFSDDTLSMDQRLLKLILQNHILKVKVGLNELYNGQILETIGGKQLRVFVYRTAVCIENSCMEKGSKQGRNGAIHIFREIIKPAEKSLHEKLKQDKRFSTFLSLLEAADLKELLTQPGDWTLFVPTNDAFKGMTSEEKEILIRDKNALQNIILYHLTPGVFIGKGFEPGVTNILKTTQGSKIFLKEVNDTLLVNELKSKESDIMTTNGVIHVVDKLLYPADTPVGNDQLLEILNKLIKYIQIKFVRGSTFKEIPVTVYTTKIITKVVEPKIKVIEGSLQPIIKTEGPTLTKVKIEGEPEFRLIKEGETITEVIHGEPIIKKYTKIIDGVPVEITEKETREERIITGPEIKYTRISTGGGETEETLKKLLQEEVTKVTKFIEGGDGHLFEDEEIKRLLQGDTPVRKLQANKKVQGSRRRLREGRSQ
UniProt O43447: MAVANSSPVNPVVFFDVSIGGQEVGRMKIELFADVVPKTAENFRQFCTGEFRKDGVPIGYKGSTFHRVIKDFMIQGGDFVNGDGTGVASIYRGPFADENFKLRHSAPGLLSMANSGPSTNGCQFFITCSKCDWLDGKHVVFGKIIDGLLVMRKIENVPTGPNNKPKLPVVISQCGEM
UniProt P16435: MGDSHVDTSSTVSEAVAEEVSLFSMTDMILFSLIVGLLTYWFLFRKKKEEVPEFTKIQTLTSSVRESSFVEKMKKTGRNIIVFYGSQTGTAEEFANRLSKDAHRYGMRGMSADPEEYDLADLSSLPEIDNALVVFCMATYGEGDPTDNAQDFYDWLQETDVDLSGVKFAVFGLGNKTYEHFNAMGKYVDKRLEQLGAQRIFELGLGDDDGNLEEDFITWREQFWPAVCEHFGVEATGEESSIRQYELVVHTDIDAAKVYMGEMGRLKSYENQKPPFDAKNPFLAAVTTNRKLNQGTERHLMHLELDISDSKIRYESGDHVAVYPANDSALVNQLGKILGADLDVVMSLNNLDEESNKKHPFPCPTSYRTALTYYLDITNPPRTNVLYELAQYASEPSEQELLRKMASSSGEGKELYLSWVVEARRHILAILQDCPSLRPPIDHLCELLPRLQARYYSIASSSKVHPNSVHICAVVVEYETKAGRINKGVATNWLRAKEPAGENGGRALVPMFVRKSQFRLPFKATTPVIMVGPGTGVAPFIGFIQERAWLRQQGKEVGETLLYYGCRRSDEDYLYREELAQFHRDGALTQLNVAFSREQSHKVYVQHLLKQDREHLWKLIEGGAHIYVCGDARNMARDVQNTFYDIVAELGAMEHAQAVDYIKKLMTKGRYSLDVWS
UniProt O43314: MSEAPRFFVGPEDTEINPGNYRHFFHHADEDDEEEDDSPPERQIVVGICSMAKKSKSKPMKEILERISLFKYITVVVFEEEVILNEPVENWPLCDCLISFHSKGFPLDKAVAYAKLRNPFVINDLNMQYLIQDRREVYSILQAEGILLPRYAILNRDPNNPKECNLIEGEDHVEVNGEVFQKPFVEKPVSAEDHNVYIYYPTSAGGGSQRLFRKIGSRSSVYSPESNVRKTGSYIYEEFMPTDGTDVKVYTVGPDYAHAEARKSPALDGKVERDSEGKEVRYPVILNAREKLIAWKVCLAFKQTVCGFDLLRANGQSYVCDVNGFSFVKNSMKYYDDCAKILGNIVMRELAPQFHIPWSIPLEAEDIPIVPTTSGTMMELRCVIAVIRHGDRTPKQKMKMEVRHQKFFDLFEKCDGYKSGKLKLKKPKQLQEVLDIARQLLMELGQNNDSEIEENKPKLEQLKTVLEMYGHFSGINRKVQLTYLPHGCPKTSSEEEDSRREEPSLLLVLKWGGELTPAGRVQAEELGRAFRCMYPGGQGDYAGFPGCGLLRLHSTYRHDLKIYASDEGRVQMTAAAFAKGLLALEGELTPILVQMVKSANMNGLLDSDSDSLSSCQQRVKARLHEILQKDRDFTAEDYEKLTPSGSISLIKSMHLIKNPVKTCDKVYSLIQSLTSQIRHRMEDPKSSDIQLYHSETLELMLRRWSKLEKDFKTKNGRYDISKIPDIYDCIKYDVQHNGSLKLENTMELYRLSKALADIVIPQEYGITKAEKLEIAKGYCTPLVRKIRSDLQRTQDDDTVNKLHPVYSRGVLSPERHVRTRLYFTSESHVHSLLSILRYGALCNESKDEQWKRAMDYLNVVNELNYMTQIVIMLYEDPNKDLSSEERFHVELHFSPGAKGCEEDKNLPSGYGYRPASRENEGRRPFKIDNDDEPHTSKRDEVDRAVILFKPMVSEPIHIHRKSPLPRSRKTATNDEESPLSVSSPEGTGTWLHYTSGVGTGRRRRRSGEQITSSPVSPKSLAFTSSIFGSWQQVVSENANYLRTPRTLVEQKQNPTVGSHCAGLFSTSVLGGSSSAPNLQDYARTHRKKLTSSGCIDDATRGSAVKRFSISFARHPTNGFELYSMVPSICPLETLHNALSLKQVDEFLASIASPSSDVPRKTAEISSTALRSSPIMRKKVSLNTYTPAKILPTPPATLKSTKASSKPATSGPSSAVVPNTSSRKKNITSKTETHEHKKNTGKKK
UniProt Q9BUI4: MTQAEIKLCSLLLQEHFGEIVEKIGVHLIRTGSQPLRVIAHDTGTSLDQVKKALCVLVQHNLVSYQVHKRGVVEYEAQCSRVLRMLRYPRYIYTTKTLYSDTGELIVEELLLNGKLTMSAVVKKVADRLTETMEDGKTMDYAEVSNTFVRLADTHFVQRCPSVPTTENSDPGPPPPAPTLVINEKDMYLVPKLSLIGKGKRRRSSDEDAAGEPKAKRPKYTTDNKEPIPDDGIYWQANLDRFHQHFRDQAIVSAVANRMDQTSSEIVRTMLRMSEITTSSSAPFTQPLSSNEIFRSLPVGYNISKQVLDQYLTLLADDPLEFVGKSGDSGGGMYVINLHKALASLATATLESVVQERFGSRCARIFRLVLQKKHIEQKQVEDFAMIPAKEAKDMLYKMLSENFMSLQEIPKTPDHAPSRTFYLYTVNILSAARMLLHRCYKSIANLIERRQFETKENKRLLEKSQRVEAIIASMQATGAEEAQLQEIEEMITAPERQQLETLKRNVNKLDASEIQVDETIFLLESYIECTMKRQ
UniProt O15031: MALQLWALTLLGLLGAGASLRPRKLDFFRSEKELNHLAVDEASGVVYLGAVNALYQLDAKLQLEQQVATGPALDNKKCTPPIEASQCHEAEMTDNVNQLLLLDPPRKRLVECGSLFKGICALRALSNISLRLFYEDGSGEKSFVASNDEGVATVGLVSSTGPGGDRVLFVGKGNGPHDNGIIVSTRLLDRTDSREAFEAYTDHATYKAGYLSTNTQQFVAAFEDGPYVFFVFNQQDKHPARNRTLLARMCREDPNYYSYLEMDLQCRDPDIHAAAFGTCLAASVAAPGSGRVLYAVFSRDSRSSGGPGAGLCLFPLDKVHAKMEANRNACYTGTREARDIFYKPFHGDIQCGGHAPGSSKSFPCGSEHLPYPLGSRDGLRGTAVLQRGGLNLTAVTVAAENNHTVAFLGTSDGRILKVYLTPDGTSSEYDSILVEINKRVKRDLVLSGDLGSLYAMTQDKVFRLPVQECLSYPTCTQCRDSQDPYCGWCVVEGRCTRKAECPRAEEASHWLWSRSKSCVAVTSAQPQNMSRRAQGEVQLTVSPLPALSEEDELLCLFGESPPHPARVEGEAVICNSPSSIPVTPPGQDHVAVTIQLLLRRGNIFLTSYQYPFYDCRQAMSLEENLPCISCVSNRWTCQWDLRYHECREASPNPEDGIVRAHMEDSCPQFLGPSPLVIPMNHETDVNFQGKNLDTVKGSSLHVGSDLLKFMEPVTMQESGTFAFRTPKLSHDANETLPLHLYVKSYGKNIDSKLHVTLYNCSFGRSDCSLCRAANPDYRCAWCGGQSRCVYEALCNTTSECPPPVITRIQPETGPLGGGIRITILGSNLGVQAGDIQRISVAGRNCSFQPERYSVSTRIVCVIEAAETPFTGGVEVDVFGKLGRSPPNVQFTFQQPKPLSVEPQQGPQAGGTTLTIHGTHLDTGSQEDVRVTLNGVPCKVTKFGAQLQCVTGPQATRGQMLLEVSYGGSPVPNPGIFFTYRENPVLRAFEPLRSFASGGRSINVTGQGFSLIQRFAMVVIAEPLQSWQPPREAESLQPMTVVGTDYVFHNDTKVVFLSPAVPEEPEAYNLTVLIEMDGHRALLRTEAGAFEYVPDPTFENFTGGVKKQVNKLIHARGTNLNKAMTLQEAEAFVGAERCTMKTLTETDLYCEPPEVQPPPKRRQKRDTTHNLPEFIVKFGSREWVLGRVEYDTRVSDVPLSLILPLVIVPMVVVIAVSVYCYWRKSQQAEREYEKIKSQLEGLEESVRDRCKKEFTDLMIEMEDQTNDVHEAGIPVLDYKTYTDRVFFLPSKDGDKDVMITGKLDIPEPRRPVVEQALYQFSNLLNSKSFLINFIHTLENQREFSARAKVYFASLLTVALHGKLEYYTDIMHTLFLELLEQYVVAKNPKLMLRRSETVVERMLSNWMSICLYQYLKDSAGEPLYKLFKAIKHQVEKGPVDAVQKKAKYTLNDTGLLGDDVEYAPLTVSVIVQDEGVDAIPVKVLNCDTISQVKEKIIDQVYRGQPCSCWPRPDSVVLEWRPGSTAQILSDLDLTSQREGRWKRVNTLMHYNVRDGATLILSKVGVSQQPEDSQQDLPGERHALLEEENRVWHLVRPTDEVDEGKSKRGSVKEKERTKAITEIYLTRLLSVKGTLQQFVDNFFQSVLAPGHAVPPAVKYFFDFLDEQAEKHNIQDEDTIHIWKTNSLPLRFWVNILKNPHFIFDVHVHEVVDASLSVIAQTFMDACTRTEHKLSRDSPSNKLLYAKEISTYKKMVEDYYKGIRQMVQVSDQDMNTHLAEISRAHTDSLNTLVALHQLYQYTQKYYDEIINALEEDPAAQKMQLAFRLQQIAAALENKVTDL
UniProt P13797: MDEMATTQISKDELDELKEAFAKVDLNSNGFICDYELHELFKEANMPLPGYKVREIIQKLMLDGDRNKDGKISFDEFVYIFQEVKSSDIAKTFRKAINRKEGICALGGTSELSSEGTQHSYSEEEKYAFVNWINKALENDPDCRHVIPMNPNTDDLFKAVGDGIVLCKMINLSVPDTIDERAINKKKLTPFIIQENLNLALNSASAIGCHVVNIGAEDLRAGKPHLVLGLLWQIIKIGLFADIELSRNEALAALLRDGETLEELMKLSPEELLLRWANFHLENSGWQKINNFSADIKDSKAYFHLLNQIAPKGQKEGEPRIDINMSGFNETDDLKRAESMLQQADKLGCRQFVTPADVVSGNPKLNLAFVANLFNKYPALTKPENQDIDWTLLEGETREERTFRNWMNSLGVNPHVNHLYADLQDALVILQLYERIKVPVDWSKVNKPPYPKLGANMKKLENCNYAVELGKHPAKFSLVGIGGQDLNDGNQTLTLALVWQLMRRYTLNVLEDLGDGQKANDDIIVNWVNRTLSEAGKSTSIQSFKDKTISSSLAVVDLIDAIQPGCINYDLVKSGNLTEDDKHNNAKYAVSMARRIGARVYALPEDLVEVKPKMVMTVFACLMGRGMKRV
UniProt Q9NQ55: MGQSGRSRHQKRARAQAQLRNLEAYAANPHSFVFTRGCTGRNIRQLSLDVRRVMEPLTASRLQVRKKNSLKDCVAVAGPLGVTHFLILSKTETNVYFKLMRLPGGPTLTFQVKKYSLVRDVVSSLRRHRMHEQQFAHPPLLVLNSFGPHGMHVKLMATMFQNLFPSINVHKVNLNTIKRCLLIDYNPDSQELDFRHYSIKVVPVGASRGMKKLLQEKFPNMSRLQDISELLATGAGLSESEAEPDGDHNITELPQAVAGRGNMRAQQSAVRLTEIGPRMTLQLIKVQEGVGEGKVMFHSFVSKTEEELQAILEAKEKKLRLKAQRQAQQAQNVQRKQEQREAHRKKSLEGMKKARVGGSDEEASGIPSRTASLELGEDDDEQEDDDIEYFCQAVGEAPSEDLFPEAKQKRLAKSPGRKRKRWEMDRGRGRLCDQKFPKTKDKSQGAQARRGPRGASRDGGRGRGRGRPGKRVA
UniProt P62937, whole entry, looked up: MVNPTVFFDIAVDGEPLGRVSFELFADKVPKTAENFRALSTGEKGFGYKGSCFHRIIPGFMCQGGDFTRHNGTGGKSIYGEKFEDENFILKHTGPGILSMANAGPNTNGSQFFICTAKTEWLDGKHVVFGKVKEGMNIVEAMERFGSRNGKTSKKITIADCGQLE

What was measured:
Experiment in all cases: log2 fold change, soluble protein after heating vs DMSO (PISA); higher = thermal stabilisation; K562 cells, 10 uM, 30 min; active = over 0.2 and 3.5 SD of the protein, either way, in both replicates (recomputed)
[1] = compound: CS(=O)(=O)c1ccc(-c2cnc(N)c(C(=O)Nc3ccccc3)n2)cc1
Outline: (§1)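 K562 cells at 2×10^6 cells/mL were exposed to 10 μM compound for 30 min, then aliquots were heated for 3 min across 48°C-58°C, pooled, and extracted in PBS containing 0.5% NP-40 at 4°C. The supernatant after 21,000xg for 90 min was taken as soluble protein and measured by TMTpro 16plex LC-MS/MS with channel sums equalised. Thermal stability is reported relative to control samples, with values from duplicates. Fold changes are given on a log2 scale.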

crizotinib = compound: C[C@@H](Oc1cc(-c2cnn(C3CCNCC3)c2)cnc1N)c1c(Cl)ccc(F)c1Cl [crizotinib]
Outline: as §1

[2] = compound: C[C@@H]1COCCN1C2=NC(=NC(=C2)C3(CC3)S(=O)(=O)C)C4=C5C=CNC5=CC=C4
Outline: as §1

[3] = compound: C[C@H](C1=CC=C(C=C1)C(=O)NC2=C3C=CNC3=NC=C2)N
Outline: as §1

duvelisib = compound: C[C@H](Nc1ncnc2nc[nH]c12)c1cc2cccc(Cl)c2c(=O)n1-c1ccccc1 [duvelisib]
Outline: as §1

gandotinib = compound: Cc1cc(Nc2cc(CN3CCOCC3)c3nc(C)c(Cc4ccc(Cl)cc4F)n3n2)n[nH]1 [gandotinib]
Outline: as §1

tozasertib = compound: Cc1cc(Nc2cc(N3CCN(C)CC3)nc(Sc3ccc(NC(=O)C4CC4)cc3)n2)n[nH]1 [tozasertib]
Outline: as §1

[4] = compound: Cc1cc(SCc2sc(-c3ccc(C(F)(F)F)cc3)nc2C)ccc1OCC(=O)O
Outline: as §1

doramapimod = compound: Cc1ccc(-n2nc(C(C)(C)C)cc2NC(=O)Nc2ccc(OCCN3CCOCC3)c3ccccc23)cc1 [doramapimod]
Outline: as §1

ispinesib = compound: Cc1ccc(C(=O)N(CCCN)[C@@H](c2nc3cc(Cl)ccc3c(=O)n2Cc2ccccc2)C(C)C)cc1 [ispinesib]
Outline: as §1

Measured: log2 fold change

POLR3A (UniProt O14802)
inactive: [1] 0.036 | crizotinib -0.064 | [2] -0.007 | [3] 0.115 | duvelisib 0.035 | gandotinib -0.214 | tozasertib 0.079 | [4] 0.108 | doramapimod -0.029 | ispinesib -0.111

POSTN (UniProt Q15063)
inactive: [1] -0.001 | crizotinib 0.001 | [2] 0.104 | [3] 0.102 | duvelisib 0.032 | gandotinib -0.243 | tozasertib 0.027 | [4] 0.099 | doramapimod -0.163 | ispinesib 0.015

POGLUT3 (UniProt Q7Z4H8)
inactive: [1] 0.022 | crizotinib 0.01 | [2] -0.035 | [3] 0.059 | duvelisib -0.056 | gandotinib 0.005 | tozasertib -0.002 | [4] 0.023 | doramapimod 0.009 | ispinesib -0.011

POFUT2 (UniProt Q9Y2G5)
inactive: [1] 0.097 | crizotinib -0.015 | [2] -0.024 | [3] 0.146 | duvelisib -0.021 | gandotinib 0.027 | tozasertib 0.016 | [4] 0.07 | doramapimod -0.02 | ispinesib -0.035

PPIH (UniProt O43447)
inactive: [1] 0.025 | crizotinib -0.049 | [2] 0.028 | [3] -0.017 | duvelisib 0.026 | gandotinib -0.083 | tozasertib -0.016 | [4] 0.015 | doramapimod -0.016 | ispinesib 0.035

PPCS (UniProt Q9HAB8)
inactive: [1] 0.049 | crizotinib 0.047 | [2] 0.056 | [3] -0.006 | duvelisib 0.047 | gandotinib -0.031 | tozasertib -0.052 | [4] 0.042 | doramapimod -0.004 | ispinesib 0.079

PPM1A isoform 3 (UniProt P35813)
inactive: [1] 0.015 | crizotinib 0.022 | [2] 0.091 | [3] 0.009 | duvelisib 0.064 | gandotinib -0.099 | tozasertib -0.028 | [4] 0.014 | doramapimod -0.026 | ispinesib 0.003

PNP (UniProt P00491)
inactive: [1] -0.005 | crizotinib 0.039 | [2] 0.012 | [3] -0.037 | duvelisib -0.003 | gandotinib 0.027 | tozasertib -0.024 | [4] -0.025 | doramapimod -0.001 | ispinesib 0.019

POR (UniProt P16435)
inactive: [1] 0.023 | crizotinib 0.079 | [2] 0.048 | [3] -0.072 | duvelisib 0.062 | gandotinib 0.019 | tozasertib -0.02 | [4] 0 | doramapimod -0.036 | ispinesib 0.031

2 records picked at random from those above:
PNP (UniProt P00491)
inactive: [1] -0.005 | crizotinib 0.039 | [2] 0.012 | [3] -0.037 | duvelisib -0.003 | gandotinib 0.027 | tozasertib -0.024 | [4] -0.025 | doramapimod -0.001 | ispinesib 0.019

POSTN (UniProt Q15063)
inactive: [1] -0.001 | crizotinib 0.001 | [2] 0.104 | [3] 0.102 | duvelisib 0.032 | gandotinib -0.243 | tozasertib 0.027 | [4] 0.099 | doramapimod -0.163 | ispinesib 0.015

The listing continues:

POP4 (UniProt O95707)
inactive: [1] 0.032 | crizotinib 0.039 | [2] 0.043 | [3] 0.01 | duvelisib 0.051 | gandotinib 0.073 | tozasertib 0.012 | [4] 0.05 | doramapimod 0.084 | ispinesib -0.023

PPIE (UniProt Q9UNP9)
inactive: [1] 0.087 | crizotinib 0.141 | [2] -0.054 | [3] -0.028 | duvelisib -0.029 | gandotinib 0.045 | tozasertib 0.015 | [4] -0.058 | doramapimod -0.023 | ispinesib 0.108

PPIP5K1 (UniProt Q6PFW1)
inactive: [1] -0.004 | crizotinib 0.032 | [2] 0.065 | [3] -0.042 | duvelisib 0.003 | gandotinib -0.026 | tozasertib 0.009 | [4] 0.018 | doramapimod 0.016 | ispinesib 0.032

PMF1 (UniProt Q6P1K2)
inactive: [1] 0.016 | crizotinib 0.119 | [2] 0.013 | [3] -0.005 | duvelisib 0.103 | gandotinib -0.007 | tozasertib 0.052 | [4] 0.083 | doramapimod -0.002 | ispinesib -0.057

PPIP5K2 (UniProt O43314)
inactive: [1] 0.048 | crizotinib 0.013 | [2] 0.049 | [3] -0.054 | duvelisib 0.036 | gandotinib -0.014 | tozasertib -0.016 | [4] -0.012 | doramapimod -0.018 | ispinesib 0.074

PNKD isoform 2 (UniProt Q8N490)
inactive: [1] 0.036 | crizotinib 0.08 | [2] 0.126 | [3] 0.046 | duvelisib 0.139 | gandotinib 0.052 | tozasertib -0.024 | [4] 0.08 | doramapimod -0.05 | ispinesib -0.103

POLR2H (UniProt P52434)
inactive: [1] 0.06 | crizotinib -0.052 | [2] 0.18 | [3] 0.048 | duvelisib 0.129 | gandotinib 0.086 | tozasertib -0.001 | [4] 0.094 | doramapimod 0.023 | ispinesib -0.069

PNISR (UniProt Q8TF01)
inactive: [1] 0.005 | crizotinib 0.016 | [2] 0.029 | [3] -0.059 | duvelisib -0.001 | gandotinib 0.01 | tozasertib -0.047 | [4] -0.037 | doramapimod -0.051 | ispinesib 0.104

PLEKHF2 (UniProt Q9H8W4)
inactive: [1] 0.016 | crizotinib -0.175 | [2] 0.119 | [3] -0.053 | duvelisib 0.025 | gandotinib -0.028 | tozasertib 0.003 | [4] 0.025 | doramapimod 0.067 | ispinesib -0.276

POLR3C (UniProt Q9BUI4)
inactive: [1] -0.032 | crizotinib 0.088 | [2] 0.032 | [3] -0.044 | duvelisib 0.05 | gandotinib -0.013 | tozasertib 0.017 | [4] 0.005 | doramapimod 0.024 | ispinesib 0.016

PNKD isoform 3 (UniProt Q8N490)
inactive: [1] 0.048 | crizotinib 0.025 | [2] -0.018 | [3] -0.05 | duvelisib 0.086 | gandotinib 0.033 | tozasertib -0.023 | [4] -0.045 | doramapimod -0.021 | ispinesib -0.021

POLG2 (UniProt Q9UHN1)
inactive: [1] -0.024 | crizotinib 0.014 | [2] -0.007 | [3] -0.074 | duvelisib -0.023 | gandotinib -0.007 | tozasertib -0.025 | [4] -0.018 | doramapimod -0.038 | ispinesib -0.021

PPCDC (UniProt Q96CD2)
inactive: [1] 0.048 | crizotinib 0.098 | [2] 0.091 | [3] -0.1 | duvelisib 0.1 | gandotinib -0.093 | tozasertib 0.045 | [4] 0.055 | doramapimod 0.006 | ispinesib 0.031

PLXNB2 (UniProt O15031)
inactive: [1] 0.008 | crizotinib -0.008 | [2] 0.054 | [3] 0.004 | duvelisib 0.102 | gandotinib -0.015 | tozasertib -0.014 | [4] 0.025 | doramapimod 0.045 | ispinesib 0.027

PLS3 (UniProt P13797)
inactive: [1] 0.049 | crizotinib 0.049 | [2] 0.05 | [3] -0.021 | duvelisib 0.018 | gandotinib -0.096 | tozasertib -0.028 | [4] 0.002 | doramapimod -0.021 | ispinesib -0.017

PPAN isoform 3 (UniProt Q9NQ55)
inactive: [1] 0.023 | crizotinib 0.176 | [2] -0.304 | [3] 0.373 | duvelisib -0.192 | gandotinib 0.035 | tozasertib 0.151 | [4] 0.121 | doramapimod 0.312 | ispinesib 0.161

POLR3F (UniProt Q9H1D9)
inactive: [1] 0.012 | crizotinib 0.069 | [2] 0.014 | [3] 0.003 | duvelisib 0.008 | gandotinib -0.01 | tozasertib -0.01 | [4] 0.03 | doramapimod -0.014 | ispinesib 0.089

PPIA (UniProt P62937)
inactive: [1] 0.014 | crizotinib 0.034 | [2] 0.078 | [3] -0.034 | duvelisib 0.012 | gandotinib -0.005 | tozasertib -0.009 | [4] -0.008 | doramapimod -0.001 | ispinesib 0.066
